{"source": "PubChem BioAssay AID2685", "about": "(National Center for Advancing Translational Sciences (NCATS), 2010)", "note": "Screen size: about 320,000 compounds; about 2,100 (0.66%) were called active. The shares of active, inactive and inconclusive entries below differ from those in the screen. Calls follow the shape of the dose curve; as a rule, active = well fitted inhibition curve with a large enough effect in the signal ratio, with a control signal flat (not every such curve was filed as active); inconclusive = small, poorly fitted or top-dose-only effect, or effect the other way, or a change in a side signal; inactive = flat fitted curve, though single readings scatter; the % refers to the signal ratio. Where the call is inconclusive, the potency comes from a doubtful curve fit. % is scaled to controls: 0 for no effect and ±100 for the full control effect; potency is read from the fitted curve at half-maximal effect."}
{"experiment": "qHTS Assay for Lipid Storage Modulators in Drosophila S3 Cells", "details": "BODIPY lipid droplet fluorescence, 18-24 h, cells fed with added oleic acid; lipid storage change, negative = inhibition: at 46.1 µM (top of the series) unless noted", "outline": "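Laser-scanning cytometry quantifies lipid droplet accumulation (500–530 nm total intensity; droplet/cell object ratio) in oleic acid-fed (400 uM added) Drosophila S3 cells treated with a concentration series. 20 uM Triacsin C defined 100% inhibition.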"}
{"smiles": "COc1ccc(CCN2CC(C(=O)N3CCC(O)(c4ccccc4)CC3)CCC2=O)cc1", "note": "(configuration not stated)", "Potency": "inconclusive: 2.59 µM [activator, single point]"}
{"smiles": "Cc1cc(NC(=O)c2cccc(S(=O)(=O)Nc3cccc(C(=O)O)c3)c2)no1", "Potency": "inconclusive: 0.13 µM [activator, full curve, poor fit]"}
{"smiles": "CN(Cc1ccccc1)C(=O)C1CCC(CNS(=O)(=O)c2cccc3cccnc23)CC1", "note": "(configuration not stated)", "lipid storage change, negative = inhibition": "inconclusive: -5.2%"}
{"smiles": "O=C(/C=C/c1cccc([N+](=O)[O-])c1)Nc1ccccc1N1CCOCC1", "lipid storage change, negative = inhibition": "inconclusive: 16.2%"}
{"smiles": "O=C(Cc1ccc(Cl)cc1)NCCS(=O)(=O)N1CCN(c2ccccc2)CC1", "lipid storage change, negative = inhibition": "inconclusive: -22.8%"}
{"smiles": "CCCC(O)(c1ccc(OC)cc1)C(CN1CCOCC1)c1ccc(Cl)cc1", "note": "(configuration not stated)", "lipid storage change, negative = inhibition": "inconclusive: 64.6%"}
{"smiles": "CC(=O)N1CCN(C(=O)COC(=O)COc2c(C)cc(C)cc2C)CC1", "Potency": "inconclusive: 6.51 µM [activator, single point]"}
{"smiles": "COc1ccc(NC(=O)CS(=O)(=O)c2cn(CC(=O)N3CCOCC3)c3ccccc23)cc1OC", "lipid storage change, negative = inhibition": "inconclusive: -20.8%"}
{"smiles": "Cn1c(=O)oc2cc(S(=O)(=O)CCC(=O)Nc3ccccc3)ccc21", "lipid storage change, negative = inhibition": "inconclusive: 105%"}
{"smiles": "Cc1ccc(CNC(=O)[C@H](C)NC(=O)C2CCN(C(=O)[C@@H](N)CC(C)C)CC2)cc1", "Potency": "inconclusive: 29.1 µM [activator, single point]"}
{"smiles": "Cc1cccc(N(C(=O)c2csnn2)C(C(=O)NCc2ccccc2)c2ccncc2)c1", "note": "(configuration not stated)", "Potency": "inconclusive: 5.8 µM [activator, full curve, poor fit]"}
{"smiles": "O=C1/C(=C/c2cccnc2)Oc2cc(OS(=O)(=O)c3ccc(F)cc3)ccc21", "Potency": "inconclusive: 2.59 µM [activator, partial curve]"}
{"smiles": "Cc1cccc(CS(=O)(=O)c2ncc(Cl)c(C(=O)NCc3ccc4c(c3)OCO4)n2)c1", "Potency": "active: 6.51 µM"}
{"smiles": "Cc1ccc(/C=C/C2=Cc3c(sc(NC(=O)CSc4n[nH]c(N)n4)c3C#N)C(C)(C)C2)o1", "Potency": "inconclusive: 20.6 µM [falling, single point]"}
{"smiles": "COc1ccc(C(=O)C2CCCN(C(=O)c3noc4c3CCCC4)C2)cc1F", "note": "(configuration not stated)", "lipid storage change, negative = inhibition": "inconclusive: -22.3%"}
{"smiles": "CCCCC(CC)CNC(=O)c1ccc2c(c1)OCO2", "note": "(configuration not stated)", "lipid storage change, negative = inhibition": "inconclusive: 25.9%"}
{"smiles": "O=C(CCc1ccncc1)N1CCCC(Nc2ccc(F)cc2)C1", "note": "(configuration not stated)", "lipid storage change, negative = inhibition": "inconclusive: 63.7%"}
{"smiles": "CC(C)C(NC(=O)c1ccccc1)C(=O)OCC(=O)N1CCN(c2ccccc2)CC1", "note": "(configuration not stated)", "lipid storage change, negative = inhibition": "inconclusive: -1.11%"}
{"smiles": "CCCN1CCN(C(=O)c2ccc(Sc3ccc(C)cc3)c(NC(C)=O)c2)CC1", "lipid storage change, negative = inhibition": "inconclusive: -51.2%"}
{"smiles": "CCC(Oc1ccc2ccccc2c1)C(=O)O", "note": "(configuration not stated)", "lipid storage change, negative = inhibition": "inconclusive: 28.1%"}
{"smiles": "O=C1CSC(c2ccc(Cl)cc2)N1", "note": "(configuration not stated)", "lipid storage change, negative = inhibition": "inconclusive: -33.1%"}
{"smiles": "O=[N+]([O-])c1nn(-c2ccc3c(c2)OCCO3)n(O)c1=NCc1ccc(F)cc1", "lipid storage change, negative = inhibition": "inconclusive: -45.6%"}
{"smiles": "O=c1[nH]c2ccccc2n1CCCOc1ccccc1", "lipid storage change, negative = inhibition": "inconclusive: 22.5%"}
{"smiles": "COc1ccccc1CN1CCCC(N2CCN(c3ccccc3OC)CC2)C1", "note": "(configuration not stated)", "lipid storage change, negative = inhibition": "inconclusive: 27%"}
{"smiles": "O=C(c1ccco1)N1CCN(C(=O)C2CC(c3ccc(Cl)cc3)=NO2)CC1", "note": "(configuration not stated)", "Potency": "inconclusive: 6.51 µM [activator, single point]"}
{"smiles": "COc1ccc(N2CCN(C(=O)c3cccc(S(=O)(=O)N4CCCc5ccccc54)c3)CC2)cc1", "lipid storage change, negative = inhibition": "inconclusive: -0.289%"}
{"smiles": "COC(=O)C1CCN(c2cc(=O)n(-c3ccc(OC)cc3)c(=O)[nH]2)CC1", "Potency": "inconclusive: 29.1 µM [cytotoxic, single point]"}
{"smiles": "CC(=O)c1cccc(NC(=S)NNC(=O)c2ccc(C)c([N+](=O)[O-])c2)c1", "Potency": "inconclusive: 29.1 µM [rising, single point]"}
{"smiles": "CCOC(=O)c1c(C)[nH]c(NC(=O)NNC(=O)c2ccc(OC)cc2)c1C", "Potency": "inconclusive: 14.6 µM [activator, partial curve, poor fit]"}
{"smiles": "CC(C)c1ccc(NC(=O)C(c2ccc3c(c2)OCO3)N2CCN(C(=O)c3ccco3)CC2)cc1", "note": "(configuration not stated)", "Potency": "inconclusive: 29.1 µM [falling, single point]"}
{"smiles": "O=C(COC(=O)/C=C/c1ccc(Cl)cc1Cl)Nc1ccc2c(c1)OCCO2", "lipid storage change, negative = inhibition": "inconclusive: 127%"}
{"smiles": "COc1ccccc1C(=O)Nc1nnc(S(=O)(=O)N(C)Cc2ccccc2)s1", "lipid storage change, negative = inhibition": "inconclusive: -59%"}
{"smiles": "COc1c(Cl)ccc(Cl)c1C(=O)NC(=O)N1CCOCC1", "lipid storage change, negative = inhibition": "inconclusive: -4.05%"}
{"smiles": "COc1ccc(CCNC(=O)CN(C)S(=O)(=O)c2cccs2)cc1", "lipid storage change, negative = inhibition": "inconclusive: 13.5%"}
{"smiles": "COCCNC(=O)C1=NOC(Cn2cc(C#N)c(=O)n(C)c2=O)C1", "note": "(configuration not stated)", "lipid storage change, negative = inhibition": "inconclusive: -5.75%"}
{"smiles": "CCCN1CCC(=O)N([C@H](COc2ccccc2)Cc2ccccc2)CC1", "lipid storage change, negative = inhibition": "inconclusive: -3.65%"}
{"smiles": "OCC1(Cc2cccc(Cl)c2)CCCN(Cc2sc(N3CCCC3)nc2Cl)C1", "note": "(configuration not stated)", "lipid storage change, negative = inhibition": "inconclusive: -7.94%"}
{"smiles": "Cc1cc(N2CCCCC2)nc2ccccc12", "lipid storage change, negative = inhibition": "inconclusive: 5.54%"}
{"smiles": "CCOC(=O)c1nn(-c2ccc(C)c(C)c2)c(=O)c(C#N)c1C", "outcome": "inactive [at 46.1 µM]"}
{"smiles": "OC1CCN(c2c3c(nc4cc(-c5ccc(F)cc5)nn24)CCC3)CC1", "lipid storage change, negative = inhibition": "inconclusive: 24.8%"}
{"smiles": "CC1CCCCN1C(=O)CN1CCC(c2nc3ccc(Cl)cc3[nH]2)CC1", "note": "(configuration not stated)", "lipid storage change, negative = inhibition": "inconclusive: 21.8%"}
{"smiles": "COc1ccc(NC(=O)CNC(=O)c2cccs2)cc1Cl", "Potency": "inconclusive: 23.1 µM [falling, single point]"}
{"smiles": "COc1ccc(CCN2C(=O)C3C(C2=O)C2C=CC3C23CC3)cc1OC", "note": "(configuration not stated)", "Potency": "inconclusive: 0.13 µM [activator, full curve, poor fit]"}
{"smiles": "CCCCc1ccc(NC(=O)Nc2cnccn2)cc1", "lipid storage change, negative = inhibition": "inconclusive: 14.6%"}
{"smiles": "O=C1c2ccc([N+](=O)[O-])cc2C(=O)N1Cc1cccnc1", "lipid storage change, negative = inhibition": "inconclusive: -26.4%"}
{"smiles": "CN(C)C(=O)c1cccn1-c1ncc(C(F)(F)F)cc1Cl", "lipid storage change, negative = inhibition": "inconclusive: -18.9%"}
{"smiles": "O=C(NNS(=O)(=O)c1ccccc1)Nc1ccc(F)cc1", "Potency": "inconclusive: 5.17 µM [activator, partial curve, poor fit]"}
